Test results from publication PMC10158761, “Screening of an annexin‐A2‐targeted heptapeptide for pancreatic adenocarcinoma localization” (Molecular Oncology, 2022).
No constants are given. Whether binding was seen depends on the method and setting. Some results given as binding are weak or reduced against the parent protein; the word gives no strength.

The chains behind the UniProt entries cited, without tags or fusion partners.
UniProt P07355: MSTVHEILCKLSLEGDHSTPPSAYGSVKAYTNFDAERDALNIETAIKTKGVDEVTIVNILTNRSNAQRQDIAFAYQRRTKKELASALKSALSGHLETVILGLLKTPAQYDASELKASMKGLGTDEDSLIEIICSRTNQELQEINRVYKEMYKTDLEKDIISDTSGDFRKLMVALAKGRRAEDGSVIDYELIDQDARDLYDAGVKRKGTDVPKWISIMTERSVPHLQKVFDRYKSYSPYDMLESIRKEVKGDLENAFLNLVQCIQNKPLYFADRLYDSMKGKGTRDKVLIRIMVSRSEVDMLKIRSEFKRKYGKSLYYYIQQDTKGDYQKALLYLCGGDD

Legend:
[1] = molecular target: T1, GST-fused ANXA2 recombinant protein (UniProt P07355 1-339); test: affinity column with LC/MS detection; 0.7 mg purified recombinant ANXA2 coupled to CNBr-activated Sepharose; 1 mg YW7 added, 1 h at 4 °C; washed with 50 mM Tris-HCl pH 8.0 and 50 mM glycine-0.5 M NaCl pH 4.0; eluents analysed by UPLC-QTOF/MS; both purified
T1 construct: product of 62 kD with GST; No cleavage of GST is described; The size of 62 kD would fit whole ANXA2 (36 kD) plus GST; also called GST-ANXA2; annexin A2; source: E. coli BL21 (DE3), purified (GST tag purification resin)

[2] = molecular target: ANXA2 on pancreatic cells (human (endogenous in PANC-1 and HPDE6-C7)) (UniProt P07355); test: flow cytometry on cells; PANC-1 cells transfected with si-ANXA2, si-NC or blank, in suspension; 20 μM FITC-YW7, 37 °C, 15 min; washed with PBS; only the binder purified
[3] = molecular target: ANXA2 on pancreatic cells (human (endogenous in PANC-1 and HPDE6-C7)) (UniProt P07355); test: fluorescence microscopy of cells; fluorescent images of FITC-YW7 on PANC-1 cells transfected with si-ANXA2, si-NC or blank; only the binder purified

With YWRGVYN [YW7 peptide] the binding [1] was “binds”.

With YWRGVYN (FITC on the N-terminus via a spacer of 6-aminocaproic acid) [FITC-labeled YW7] the binding [2] was “binds” and the binding [3] was “binds”.
